PubChem BioAssay AID1259254, NCATS | 2017
Shown is an unselected part of about 59,000 reagents tested. Over the whole deposit, about 1,550 (2.6%) were called active. 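G2 share is only a proxy for re-replication; each gene was hit by three separate siRNAs, and active genes were retested.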 The raw values are shown without normalisation. The numbers tell different reagents against one gene apart. Not stated in the record: the amount of reagent.

Aim: 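Genome-wide screen for genes that prevent DNA re-replication in cancer cells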 (primary screen)
Cells: human HCT116 colorectal cancer cells
Reagents: single siRNA against human genes
Duration: 3 days
Read-out: 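Nuclei stained with Hoechst and imaged; cell-cycle phase assigned by DNA content; G2 share scaled per plate, non-targeting siRNA 0%, GMNN siRNA 100%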
Reading the numbers: G2 robust z-score and G2 cells, % of GMNN control: higher = more G2 cells, more excess DNA replication; raw share of cells in G2: higher = larger share of cells with G2 DNA content
Active means: 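Active siRNAs have a G2 robust z of 5 or more median absolute deviations over the median, which in these data means about 38% or higher of GMNN control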

gene knocked down | reagent no. | G2 robust z-score | G2 cells, % of GMNN control | raw share of cells in G2 (%) | Call
ORMDL1 | 1 | 0.18 | 4.24 | 5.79 | inactive
ORMDL1 | 2 | -0.594 | -1.21 | 2.97 | inactive
ORMDL1 | 3 | -0.813 | -2.75 | 1.01 | inactive
CES5A | 1 | -0.808 | -2.72 | 3.56 | inactive
CES5A | 2 | -1.51 | -7.64 | 2.31 | inactive
CES5A | 3 | 0.249 | 4.72 | 6.43 | inactive
CLIC1 | 1 | -0.567 | -1.02 | 3.98 | inactive
CLIC1 | 2 | -1.37 | -6.69 | 2.85 | inactive
CLIC1 | 3 | -0.998 | -4.05 | 3.41 | inactive
ARMC3 | 1 | 1.52 | 13.6 | 8.52 | inactive
ARMC3 | 2 | 0.397 | 5.76 | 5.1 | inactive
ARMC3 | 3 | -0.113 | 2.17 | 3.89 | inactive
POMT1 | 1 | 1.38 | 12.7 | 11.5 | inactive
POMT1 | 2 | 0.0452 | 3.29 | 7.12 | inactive
POMT1 | 3 | 0.161 | 4.1 | 5.17 | inactive
AMT | 1 | -0.293 | 0.906 | 5.03 | inactive
AMT | 2 | 1.46 | 13.2 | 9.78 | inactive
AMT | 3 | 0.0292 | 3.17 | 5.17 | inactive
FOXN3-AS1 | 1 | 1.77 | 15.4 | 8.63 | inactive
FOXN3-AS1 | 2 | -0.328 | 0.658 | 3.26 | inactive
FOXN3-AS1 | 3 | 4.58 | 35.2 | 17.6 | inactive
GRAMD2B | 1 | -0.517 | -0.667 | 4.29 | inactive
GRAMD2B | 2 | 0.164 | 4.12 | 6.45 | inactive
GRAMD2B | 3 | -0.446 | -0.171 | 2.65 | inactive
ZNF106 | 1 | -0.7 | -1.96 | 4.84 | inactive
ZNF106 | 2 | -0.789 | -2.58 | 3.43 | inactive
ZNF106 | 3 | 4.62 | 35.5 | 17.1 | inactive
LIN7C | 1 | -0.504 | -0.578 | 6.18 | inactive
LIN7C | 2 | -0.197 | 1.58 | 5 | inactive
LIN7C | 3 | -1.1 | -4.77 | 2.35 | inactive
SNUPN | 1 | 0.944 | 9.61 | 8.83 | inactive
SNUPN | 2 | 0.0795 | 3.53 | 4.4 | inactive
SNUPN | 3 | 0.697 | 7.87 | 7.95 | inactive
PSAP | 1 | -1.01 | -4.11 | 2.78 | inactive
PSAP | 2 | -0.469 | -0.332 | 4.55 | inactive
PSAP | 3 | 0.793 | 8.55 | 7.92 | inactive
MOCS3 | 1 | 7.15 | 53.3 | 21.4 | active
MOCS3 | 2 | 0.36 | 5.5 | 6.01 | inactive
MOCS3 | 3 | -0.668 | -1.73 | 5.38 | inactive
PSMD1 | 1 | 5.53 | 41.8 | 18.1 | active
PSMD1 | 2 | 3.58 | 28.1 | 15.4 | inactive
PSMD1 | 3 | 11.3 | 82.4 | 33.3 | active
RBM18 | 1 | -0.142 | 1.97 | 4.92 | inactive
RBM18 | 2 | 4.24 | 32.8 | 13.3 | inactive
RBM18 | 3 | -0.0894 | 2.34 | 3.67 | inactive
TLR1 | 1 | -0.384 | 0.269 | 4.48 | inactive
TLR1 | 2 | -0.182 | 1.69 | 5.9 | inactive
TLR1 | 3 | 0.374 | 5.6 | 6.67 | inactive

Copied from the list.
Entry of CLIC1 #2 in “raw share of cells in G2 (%)”: 2.85
PSAP #2, Call → inactive
ORMDL1 #2, Call → inactive
ARMC3 #1, raw share of cells in G2 (%) = 8.52
